Laboratory results: PubChem BioAssay AID504744 (Drosophila RNAi Screening Center, 2011)

- Purpose: 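Identify dsRNAs that increase or decrease phospho-dAkt after insulin treatment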 (primary screen)
- Cell system: Drosophila Kc167 cells
- Reagents: long dsRNA against Drosophila genes, 250 ng dsRNA per well of a 384-well plate
- Timing: 3 days of knock-down, then overnight serum-free starvation before stimulation
- Conditions: bovine insulin at 387 nM for 10 minutes after 12 h without serum
- Measurement: 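In-cell antibody fluorescence for phospho-dAkt in each well over DNA-dye signal, with log2 residuals expressed as z-scores adjusted for cell count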
- Call rule: 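Hit in the insulin screen when the two-replicate mean z-score is more extreme than plus or minus 2.5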
The deposit covers about 23,000 reagents; this is a random part of those with a known target gene and a result. Of all reagents, 98 (0.43%) are marked active. 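Only hit calls are given; the phospho-dAkt signals, z-scores and hit direction were not deposited.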 A plus sign joins genes that one reagent is predicted to hit.

predicted target,amplicon,Outcome
CG34286,DRSC13372,inactive
CG34286,DRSC21790,inactive
CG7910,DRSC16341,inactive
CG31098,DRSC14259,inactive
CHKov2 (CHK domain ov2),DRSC14262,inactive
yellow-f2,DRSC16372,inactive
CG33543,DRSC00384,inactive
CG33543,DRSC00385,inactive
CG7492,DRSC10855,inactive
Rnmt (RNA guanine-7 methyltransferase),DRSC03558,inactive
CG2611,DRSC02710,inactive
CG2247,DRSC19844,inactive
Ca-alpha1T (Ca[2+]-channel protein alpha[[1]] subunit T),DRSC17842,inactive
Ca-alpha1T (Ca[2+]-channel protein alpha[[1]] subunit T),DRSC18103,inactive
Ca-alpha1T (Ca[2+]-channel protein alpha[[1]] subunit T),DRSC18356,inactive
Ca-alpha1T (Ca[2+]-channel protein alpha[[1]] subunit T),DRSC18357,inactive
Ca-alpha1T (Ca[2+]-channel protein alpha[[1]] subunit T),DRSC21430,inactive
ND-13B (NADH dehydrogenase (ubiquinone) 13 kDa B subunit),DRSC10643,inactive
CG43861,DRSC02308,inactive
CG3770,DRSC04416,inactive
CG32425,DRSC11739,inactive
CG32425,DRSC11764,inactive
Pkcdelta (Protein kinase C delta),DRSC19356,inactive
Pkcdelta (Protein kinase C delta),DRSC19399,inactive
ValRS (Valyl-tRNA synthetase),DRSC06864,inactive
Nrg (Neuroglian),DRSC17573,inactive
Nrg (Neuroglian),DRSC18688,inactive
CG13949,DRSC00367,inactive
exu (exuperantia),DRSC07615,inactive
tyf (twenty-four),DRSC18382,inactive
Ipo9 (Importin 9),DRSC16813,inactive
CG8701,DRSC07237,inactive
CG16790,DRSC15156,inactive
Hsp67Ba (Heat shock gene 67Ba),DRSC11191,inactive
CG15740,DRSC19706,inactive
magu,DRSC06832,inactive
CG31821,DRSC22162,inactive
CG4660,DRSC18378,inactive
Cip4 (Cdc42-interacting protein 4),DRSC08091,inactive
Cip4 (Cdc42-interacting protein 4),DRSC08469,inactive
Cip4 (Cdc42-interacting protein 4),DRSC21740,inactive
CG7781,DRSC03068,inactive
Gr92a (Gustatory receptor 92a),DRSC21631,inactive
CG5608,DRSC15841,inactive
CG34458,DRSC06925,inactive
CG31313,DRSC13044,inactive
lncRNA:roX1 (long non-coding RNA on the X 1),DRSC21884,inactive
Tsp86D (Tetraspanin 86D),DRSC15607,inactive
LS2 (Large Subunit 2),DRSC04340,inactive
Lac (Lachesin),DRSC07452,inactive
Cad89D (Cadherin 89D),DRSC15022,inactive
CG12115,DRSC17811,inactive
CG5800,DRSC19962,inactive
Cnx99A + Cnx14D,DRSC16610,inactive
CG33969 + fbl,DRSC11886,inactive
CG15239,DRSC17972,inactive
T48 (Transcript 48),DRSC16878,inactive
AIMP2 (aaRS-interacting multifunctional protein 2),DRSC09877,inactive
lcs (la costa),DRSC20580,inactive
CG9386,DRSC16485,inactive
VAChT + ChAT,DRSC13312,inactive
PGAP2 (Post-GPI attachment to proteins 2),DRSC00632,inactive
LRP1 (LDL receptor protein 1),DRSC07238,inactive
CG4983,DRSC02799,inactive
Eato (Engulfment ABC Transporter in the ovary),DRSC01891,inactive
Eato (Engulfment ABC Transporter in the ovary),DRSC03061,inactive
CG31249,DRSC16248,inactive
ru (roughoid),DRSC08258,inactive
MKP-4 (MAPK Phosphatase 4),DRSC19567,inactive
colt (congested-like trachea),DRSC00808,inactive
Dh44-R2 (Diuretic hormone 44 receptor 2),DRSC06141,inactive
Dh44-R2 (Diuretic hormone 44 receptor 2),DRSC06281,inactive
CG3285,DRSC00589,inactive
CG3631,DRSC15503,inactive
yellow-g2,DRSC08338,inactive
CG8032,DRSC16365,inactive
achi (achintya),DRSC07276,inactive
dome (domeless),DRSC19583,inactive
CG14439,DRSC17931,inactive
epsilonCOP (Coat Protein (coatomer) epsilon),DRSC02003,inactive
Phlpp (PH domain leucine-rich repeat protein phosphatase),DRSC02065,inactive
Phlpp (PH domain leucine-rich repeat protein phosphatase),DRSC22808,inactive
CG15073,DRSC06506,inactive
tup (tailup),DRSC03627,inactive
CG31546,DRSC12317,inactive
"Grx1t (Glutaredoxin 1, testis-specific)",DRSC04530,inactive
CG15643,DRSC19679,inactive
CG11149,DRSC02130,inactive
mgl (Megalin),DRSC17800,inactive
mgl (Megalin),DRSC17823,inactive
mgl (Megalin),DRSC17859,inactive
mgl (Megalin),DRSC18004,inactive
Arp2 (Actin-related protein 2),DRSC19332,inactive
xit (xiantuan),DRSC18364,inactive
Wdr37 (WD repeat domain 37),DRSC14500,inactive
CG32428,DRSC11697,inactive
CG32428,DRSC11768,inactive
Nep7 (Neprilysin 7),DRSC15830,inactive
CG34445,DRSC22404,inactive
CG32195,DRSC09533,inactive
Nna1 (Nna1 carboxypeptidase),DRSC19404,inactive
CG14252,DRSC14747,inactive
CG14416,DRSC18639,inactive
Tdc2 (Tyrosine decarboxylase 2),DRSC04999,inactive
CG31999,DRSC17131,inactive
CG31999,DRSC17133,inactive
CR30374 (pseudo),DRSC05080,inactive

13 entries from above, reformatted:
Nrg (Neuroglian) [DRSC17573]
- Outcome: inactive

Nrg (Neuroglian) [DRSC18688]
- Outcome: inactive

CG13949 [DRSC00367]
- Outcome: inactive

exu (exuperantia) [DRSC07615]
- Outcome: inactive

tyf (twenty-four) [DRSC18382]
- Outcome: inactive

Ipo9 (Importin 9) [DRSC16813]
- Outcome: inactive

CG8701 [DRSC07237]
- Outcome: inactive

CG16790 [DRSC15156]
- Outcome: inactive

Hsp67Ba (Heat shock gene 67Ba) [DRSC11191]
- Outcome: inactive

CG15740 [DRSC19706]
- Outcome: inactive

magu [DRSC06832]
- Outcome: inactive

CG31821 [DRSC22162]
- Outcome: inactive

CG4660 [DRSC18378]
- Outcome: inactive
